In assay [1] the target is T1, ATL9 (E3 ubiquitin ligase, Arabidopsis thaliana), Gal4 binding domain fusion from pGBKT7-ATL9 (Arabidopsis thaliana) (UniProt O64763).
T1 sequence: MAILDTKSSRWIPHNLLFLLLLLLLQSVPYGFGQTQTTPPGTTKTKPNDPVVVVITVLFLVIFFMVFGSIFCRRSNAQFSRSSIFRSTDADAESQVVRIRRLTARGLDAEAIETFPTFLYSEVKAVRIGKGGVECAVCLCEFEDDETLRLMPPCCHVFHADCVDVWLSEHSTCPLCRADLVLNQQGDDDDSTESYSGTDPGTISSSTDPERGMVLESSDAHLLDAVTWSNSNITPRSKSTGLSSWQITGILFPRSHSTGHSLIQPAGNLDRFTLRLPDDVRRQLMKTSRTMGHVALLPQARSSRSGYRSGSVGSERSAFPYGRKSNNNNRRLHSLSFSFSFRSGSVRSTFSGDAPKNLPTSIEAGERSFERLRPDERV
Description: two-hybrid; Matchmaker GAL4 system (Clontech); bait pGBKT7-ATL9 in Y2H Gold mated with preys in pGADT7 in Y187; selection on SD/-Ade/-His/-Leu/-Trp/X-α-gal plates, 3-5 days at 30 °C, blue colonies.

Assay [2] concerns the target T2, ATL9 fused with the C-terminal portion (amino acids 156-239) of YFP (pDEST-VYCE-ATL9) (Arabidopsis thaliana) (UniProt O64763).
T2 sequence: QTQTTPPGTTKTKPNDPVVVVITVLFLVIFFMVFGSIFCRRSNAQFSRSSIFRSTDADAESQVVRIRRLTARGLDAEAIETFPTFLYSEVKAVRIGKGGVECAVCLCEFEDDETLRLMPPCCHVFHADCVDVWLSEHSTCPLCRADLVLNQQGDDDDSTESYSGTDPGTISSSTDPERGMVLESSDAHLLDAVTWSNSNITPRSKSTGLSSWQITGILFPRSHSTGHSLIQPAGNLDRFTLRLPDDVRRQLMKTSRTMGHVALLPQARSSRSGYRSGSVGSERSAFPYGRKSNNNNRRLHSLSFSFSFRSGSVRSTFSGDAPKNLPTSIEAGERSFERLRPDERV
The experiment in a line: split reporter; BiFC with split YFP (pDEST-VYCE and pDEST-VYNE); co-infiltrated into Nicotiana benthamiana leaves by Agrobacterium GV3101; confocal imaging 36 h after infiltration.

These are yes or no findings as the source states them, for the method shown. For some of these results: Binding seen in cells or lysates may run through a third protein. Some binding calls cover weakened binding; strength is not graded here. Sequences can lack the tags named with a protein.

B1: Plant defensin 1.2 (PDF1.2), Gal4 activation domain fusion from pGADT7-PDF1.2 (protein, UniProt Q9FI23 1-80)
chain: MAKFASIITLIFAALVLFAAFDAPAMVEAQKLCEKPSGTWSGVCGNSNACKNQCINLEGAKHGSCNYVFPAHKCICYVPC
On to B1, for which, in assay [1], the binding result was “binds”.

B2: Pathogen and circadian controlled 1 (PCC1), Gal4 activation domain fusion from pGADT7-PCC1 (protein, UniProt Q94C26 1-81)
chain: MNQSAQNYFSVQKPSETSSGPYTSPPPIGYPTRDAVVGDPPAAAVETNSKGVNPEAIMSCFSTCMECIFCCGVCSSLCTSE
Consider B2, for which the binding entry in assay [1] is “binds”.

B3: PCC1 fused with the N-terminal portion (amino acids 1-173) of YFP (pDEST-VYNE-PCC1) (protein, UniProt Q94C26 1-81)
chain: B2 chain
As to B3, the binding result in assay [2] is “binds”.

B4: PDF1.2 fused with the N-terminal portion (amino acids 1-173) of YFP (pDEST-VYNE-PDF1.2) (protein, UniProt Q9FI23 30-80)
chain: QKLCEKPSGTWSGVCGNSNACKNQCINLEGAKHGSCNYVFPAHKCICYVPC
Consider B4, for which the binding entry in assay [2] is “binds”.

The values are drawn from paper PMC8778023.
